{"sequences": {"note": "Amino acid sequences for entries named in this document (tags omitted). Residues count along the entry.", "UniProt Q12929, residues 531-590": "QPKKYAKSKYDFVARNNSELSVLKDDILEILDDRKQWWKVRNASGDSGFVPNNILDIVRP"}, "source": "paper PMC4198130", "binders": {"B1": {"name": "VGLUT1 from rat brain extract (protein, UniProt Q62634 1-560)", "chain": "MEFRQEEFRKLAGRALGRLHRLLEKRQEGAETLELSADGRPVTTHTRDPPVVDCTCFGLPRRYIIAIMSGLGFCISFGIRCNLGVAIVSMVNNSTTHRGGHVVVQKAQFNWDPETVGLIHGSFFWGYIVTQIPGGFICQKFAANRVFGFAIVATSTLNMLIPSAARVHYGCVIFVRILQGLVEGVTYPACHGIWSKWAPPLERSRLATTAFCGSYAGAVVAMPLAGVLVQYSGWSSVFYVYGSFGIFWYLFWLLVSYESPALHPSISEEERKYIEDAIGESAKLMNPVTKFNTPWRRFFTSMPVYAIIVANFCRSWTFYLLLISQPAYFEEVFGFEISKVGLVSALPHLVMTIIVPIGGQIADFLRSRHIMSTTNVRKLMNCGGFGMEATLLLVVGYSHSKGVAISFLVLAVGFSGFAISGFNVNHLDIAPRYASILMGISNGVGTLSGMVCPIIVGAMTKHKTREEWQYVFLIASLVHYGGVIFYGVFASGEKQPWAEPEEMSEEKCGFVGHDQLAGSDESEMEDEVEPPGAPPAPPPSYGATHSTVQPPRPPPPVRDY"}}, "biological_target": "GST fusion of the SH3 domain of EPS8 (Panomics) (human) (UniProt Q12929)", "test": "pull-down; GST fusions of SH3 or WW domains on glutathione sepharose beads, incubated with detergent-solubilized (2% TX-100) rat brain extract, RT 60 min; bound VGLUT1 by immunoblot, band intensity normalised to lysate; only the target purified", "note": "Results are given in words; binding and its absence hold for the method and conditions named. In cells and extracts the contact can be indirect.", "data": [{"binder": "B1", "values": [{"measurement": "binding", "value": "no binding"}]}]}
